Patent US8686113B2 (priority 2009, dated 2014)

Tests used:
Type in all cases: cell-based
[1] = system: HeLa cells; assay: Fluorescence microscopy of labeled peptides; details: 40 μmol/L, 2 h
[2] = system: SH-SY5Y cells; assay: Fluorescence microscopy of labeled peptides; details: 40 μmol/L, 2 h
[3] = system: E. coli BL21 A1; assay: Confocal laser scanning microscopy, bacteria; details: 30 μmol/L, TAMRA quench, time not stated
[4] = system: M. luteus 10240; assay: Confocal laser scanning microscopy, bacteria; details: 30 μmol/L, TAMRA quench, incubation for 1 h

Substance	internalization (fluorescence) in HeLa cells [1]	internalization (fluorescence) in SH-SY5Y cells [2]	internalization in E. coli [3]	internalization (fluorescence) in M. luteus [4]
H-CFVDKGSYLPRPTPPRPIYNRN-NH2 [SEQ ID NO. 92, reference compound]	no internalization	no internalization	internalize in E. coli	
CF-RQIKIWFQNRRMKWKKC-(CH2CO-VDKGSYLPRPTPPRPIYNRN-NH2)-OH [SEQ ID NO. 100]	internalize			accumulates in M. luteus
